{"sequences": {"note": "Sequences of proteins named here, by UniProt entry; tags and fusion partners are left off. A change or cut given only in a name is not applied to a line headed by its entry.", "UniProt P11473": "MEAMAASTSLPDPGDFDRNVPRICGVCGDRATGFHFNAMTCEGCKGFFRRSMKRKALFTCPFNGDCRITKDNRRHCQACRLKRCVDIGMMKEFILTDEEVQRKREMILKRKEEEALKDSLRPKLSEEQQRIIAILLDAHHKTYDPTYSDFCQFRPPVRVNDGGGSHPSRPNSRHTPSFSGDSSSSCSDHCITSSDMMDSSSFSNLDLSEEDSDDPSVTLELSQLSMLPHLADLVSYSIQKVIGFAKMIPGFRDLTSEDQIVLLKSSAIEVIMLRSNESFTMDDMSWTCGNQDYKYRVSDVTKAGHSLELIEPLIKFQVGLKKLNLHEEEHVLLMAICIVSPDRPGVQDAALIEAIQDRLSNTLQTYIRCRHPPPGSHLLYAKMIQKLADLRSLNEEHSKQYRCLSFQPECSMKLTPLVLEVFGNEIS"}, "source": "PubChem BioAssay AID504847", "about": "(National Center for Advancing Translational Sciences (NCATS), 2011)", "note": "About 3,700 (0.93%) of roughly 400,000 compounds were called active. Inconclusive results, whose numbers are uncertain, are shown with a selection of clear calls. Calls come from the whole dose curve; as a rule, active = well fitted inhibition curve with a large enough effect; inconclusive = small, poorly fitted or top-dose-only effect, or another doubt; inactive = no such curve, though single readings can be large or run the other way. Where the call is inconclusive, the potency comes from a doubtful curve fit.", "data": [{"biological_target": "Vitamin D3 receptor (Homo sapiens) (UniProt P11473)", "assay": "Inhibitors of the vitamin D receptor (VDR): qHTS; note: potency is the fitted concentration of half-maximal effect; for max response, negative = inhibition: % is set by controls: 0 for no effect and ±100 for the full control effect", "conditions": "VDR-SRC2-3 peptide fluorescence polarization, 2 h; max response, negative = inhibition: hits give low values", "procedure,_shortened": "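Signal is fluorescence polarization, reporting how far test compounds block the interaction of VDR with the SRC2-3 coregulator peptide after a 2 h room-temperature incubation.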", "values": [{"compound": "O=CNC1CCCc2c1[nH]c1ccc(Cl)cc21", "note": "(stereo not drawn)", "max response, negative = inhibition": "inactive: -2.11%"}, {"compound": "Cc1cccc2sc(N(CCN(C)C)C(=O)c3cc(Cl)sc3Cl)nc12", "Potency": "inconclusive: 70.8 µM [inhibitor, single point]"}, {"compound": "Cc1cc(C)cc(CC2CC(=O)N(c3cc(C)on3)C2=O)c1", "note": "(stereo not drawn)", "Potency": "inconclusive: 7.94 µM [inhibitor, partial curve, poor fit]"}, {"compound": "CCOc1ccc(NC(=O)c2c(NCc3sccc3C)sc3c2CCCCC3)cc1", "Potency": "inconclusive: 15.8 µM [inhibitor, single point]"}, {"compound": "COc1ccc(CCNC(=O)COc2ccc(S(=O)(=O)NC3CCCCC3)cc2Cl)cc1OC", "Potency": "inconclusive: 100 µM [inhibitor, partial curve, poor fit]"}, {"compound": "O=c1c2cc(N3CCOCC3)ccc2[nH]c(=S)n1Cc1ccco1", "Potency": "active: 79.4 µM"}, {"compound": "O=c1c(C(c2ccc(O)cc2)c2c(O)nc3n(c2=O)CCS3)c(O)nc2n1CCS2", "Potency": "inconclusive: 50.1 µM [inhibitor, partial curve, poor fit]"}, {"compound": "CCCc1cc(CN2CCOCC2)c(O)c(CN2CCOCC2)c1O", "Potency": "active: 22.4 µM"}, {"compound": "COc1ccc2c(c1OC)C(=O)N1c3ccccc3C(=O)N(Cc3ccco3)C21", "note": "(stereo not drawn)", "Potency": "inconclusive: 63.1 µM [inhibitor, partial curve, poor fit]"}, {"compound": "O=C1NN(c2ccccc2)C(=O)/C1=C\\c1cccc(OC(=O)c2cccs2)c1", "Potency": "active: 50.1 µM"}, {"compound": "Cc1cc(-c2nnc(SCC(=O)Nc3ccccc3C(F)(F)F)n2N)n[nH]1", "Potency": "inconclusive: 20 µM [inhibitor, partial curve, poor fit]"}, {"compound": "Cc1ccccc1OCC(=O)NCC(=O)OCC(=O)c1ccc([N+](=O)[O-])cc1", "Potency": "inconclusive: 39.8 µM [inhibitor, single point]"}, {"compound": "N#CCCN(C(=S)NC(=O)c1cccs1)c1ccccc1F", "Potency": "inconclusive: 79.4 µM [inhibitor, partial curve]"}, {"compound": "CN(C)CCCN(C(=O)CCOc1ccccc1)c1nc2c(F)cccc2s1", "Potency": "inconclusive: 25.1 µM [inhibitor, partial curve, poor fit]"}, {"compound": "CN(Cc1ccco1)c1ncncc1-c1cccc(NS(C)(=O)=O)c1", "Potency": "inconclusive: 50.1 µM [inhibitor, partial curve]"}, {"compound": "CCOC(=O)C1=C(C)NC(SCC(N)=O)=C(C#N)C1c1cccs1", "note": "(stereo not drawn)", "Potency": "inconclusive: 0.631 µM [inhibitor, full curve, poor fit]"}, {"compound": "COc1ccc(Cl)cc1-n1c(N)c(C(N)=O)sc1=S", "Potency": "active: 79.4 µM"}, {"compound": "COc1ccc(CNc2oc(-c3ccc(COc4ccc(Cl)cc4)o3)nc2C#N)cc1", "max response, negative = inhibition": "inactive: 5.06%"}, {"compound": "CCN1C(=O)/C(=C/C=C2/Sc3ccccc3N2CCO)SC1=S", "Potency": "inconclusive: 25.1 µM [inhibitor, single point]"}, {"compound": "Oc1c(Br)cc(Br)cc1/C=N/c1nccs1", "Potency": "inconclusive: 89.1 µM [inhibitor, single point]"}, {"compound": "O=[S@]1Oc2ccccc2-c2ccccc21", "Potency": "active: 6.31 µM"}, {"compound": "C=CCOc1c(Cl)cc(CNc2ccc(N(C)C)cc2)cc1OC", "Potency": "active: 2.24 µM"}, {"compound": "NC(=O)C1CCN(C(=O)Cc2ccsc2)CC1", "max response, negative = inhibition": "inactive: 18.3%"}, {"compound": "Cc1ccc(C)c(S(=O)(=O)Nc2ccc(C(N)=O)cc2)c1", "max response, negative = inhibition": "inactive: 12.8%"}, {"compound": "C[C@@H](N)CCCP(=O)(O)O", "Potency": "inconclusive: 79.4 µM [inhibitor, single point]"}, {"compound": "O=C(Nc1ccccc1)c1cnc[nH]1", "Potency": "inconclusive: 7.94 µM [inhibitor, partial curve, poor fit]"}, {"compound": "O=S(=O)(/N=C(\\Sc1ccccc1)c1ccccc1)c1ccc(Cl)cc1", "Potency": "active: 79.4 µM"}, {"compound": "COc1cc(/C=C/C(=O)OCC(=O)Nc2c(C)n(C)n(-c3ccccc3)c2=O)ccc1O", "max response, negative = inhibition": "inactive: -3.33%"}, {"compound": "N#Cc1ccccc1-c1ccc2ncnc(NCc3cccnc3)c2c1", "Potency": "inconclusive: 50.1 µM [inhibitor, partial curve]"}, {"compound": "Cc1ccccc1NC(=S)Nc1ccccc1", "max response, negative = inhibition": "inactive: -3.56%"}, {"compound": "CC1CN(S(=O)(=O)c2cccc(C(=O)NCc3ccccn3)c2)CC(C)O1", "note": "(stereo not drawn)", "Potency": "inconclusive: 89.1 µM [inhibitor, single point]"}, {"compound": "C/C(=N/OC(=O)c1ccc(C)cc1)c1ccc(N2C(=O)C3CCCCC3C2=O)cc1", "note": "(stereo not drawn)", "Potency": "inconclusive: 44.7 µM [inhibitor, partial curve, poor fit]"}, {"compound": "COc1ccccc1/C=C/c1nc(S(=O)(=O)c2ccccc2)c(NCCN(C)C)o1", "Potency": "inconclusive: 39.8 µM [inhibitor, partial curve, poor fit]"}, {"compound": "Oc1c(CN2CCOCC2)ccc(CN2CCOCC2)c1O", "Potency": "inconclusive: 56.2 µM [inhibitor, partial curve, poor fit]"}, {"compound": "CCOC(=O)C1=C(C)N=c2s/c(=C/c3ccc(OCC(=O)O)c(OC)c3)c(=O)n2C1c1ccc(Cl)cc1", "note": "(stereo not drawn)", "Potency": "inconclusive: 56.2 µM [inhibitor, partial curve, poor fit]"}, {"compound": "Cc1coc2c(O)cc3c(c12)OC1(N2CCCCC2)C(=O)NCCCC31", "note": "(stereo not drawn)", "Potency": "inconclusive: 50.1 µM [inhibitor, partial curve, poor fit]"}, {"compound": "Cc1c(C#N)c(=O)c(-[n+]2ccccc2)c([S-])n1-c1ccc(Cl)cc1", "Potency": "inconclusive: 79.4 µM [inhibitor, single point]"}, {"compound": "COC(=O)[C@@]1(Cc2ccccc2)[C@@H]2C(=CC(=O)[C@H]2CC(=O)C(=O)N(C)C)CN1C(=O)c1ccccc1", "Potency": "inconclusive: 56.2 µM [inhibitor, partial curve, poor fit]"}, {"compound": "O=C1Nc2ccccc2/C1=C/c1ccccc1F", "Potency": "inconclusive: 35.5 µM [inhibitor, single point]"}, {"compound": "Cc1cc(C)c2c(=O)n(CC(=O)N3CCC(N4CCCCC4)CC3)sc2n1", "Potency": "active: 20 µM"}, {"compound": "O=[N+]([O-])c1cc(C(F)(F)F)ccc1NCC1CCCO1", "note": "(stereo not drawn)", "Potency": "active: 79.4 µM"}, {"compound": "CCn1c(SCC(=O)Nc2nc(C)cs2)nnc1C(C)NC(=O)c1ccccc1", "note": "(stereo not drawn)", "Potency": "inconclusive: 63.1 µM [inhibitor, partial curve, poor fit]"}, {"compound": "Cc1cccc(Nc2nn3c(=O)c4ccccc4nc3s2)c1", "max response, negative = inhibition": "inactive: 21.3%"}]}]}
